Measurements published in PubChem BioAssay AID188 (DTP/NCI, 2004).
Shown are survivors of the treated group in tumour-free mice. Counts of survivors are from the toxicity check (mostly the fifth day) where no day follows; animals may have died later. Schedules are NCI's codes, read here as Q, the interval in days (D) or hours (H), X, the number of doses. Some entries hold several experiments; the values are given in rising order.

Test system: CD2F1 mice, nontumored, toxicity/survival
Test: NCI In Vivo Anticancer Drug Screen. Data for tumor model Nontumored Animals (Toxicity Test) in CD2F1 (CDF1) mice
Details: vehicle: saline
[1] = dose: 0.5 mg/kg/injection, schedule: Q01DX009 (oral)
[2] = dose: 0.5 mg/kg/injection, schedule: Q01DX009 (sc)
[3] = dose: 1.0 mg/kg/injection, schedule: Q01DX009 (oral)
[4] = dose: 1.0 mg/kg/injection, schedule: Q01DX009 (sc)
[5] = dose: 2.0 mg/kg/injection, schedule: Q01DX001 (oral)
[6] = dose: 2.0 mg/kg/injection, schedule: Q01DX001 (sc)
[7] = dose: 2.0 mg/kg/injection, schedule: Q01DX009 (oral)
[8] = dose: 2.0 mg/kg/injection, schedule: Q01DX009 (sc)
[9] = dose: 4.0 mg/kg/injection, schedule: Q01DX001 (oral)
[10] = dose: 4.0 mg/kg/injection, schedule: Q01DX001 (sc)

O=C1N[C@@H]([C@H]2CC[C@H](Cl)CN2)C(=O)N[C@H]1[C@H]1CC[C@H](Cl)CN1
survivor count (dose: 0.25 mg/kg/injection, schedule: Q01DX009 (iv)): 8 of 8 | survivor count (dose: 0.25 mg/kg/injection, schedule: Q03HX016 (ip)): 8 of 8 | survivor count (dose: 0.25 mg/kg/injection, schedule: Q03HX024 (ip)): 8 of 8 | survivor count (dose: 0.5 mg/kg/injection, schedule: Q01DX009 (ip)): 8 of 8 | survivor count (dose: 0.5 mg/kg/injection, schedule: Q01DX009 (iv)): 8 of 8 | survivor count [1]: 8 of 8 | survivor count [2]: 8 of 8 | survivor count (dose: 0.5 mg/kg/injection, schedule: Q03HX008 (ip)): 8 of 8 | survivor count (dose: 0.5 mg/kg/injection, schedule: Q03HX016 (ip)): 8 of 8 | survivor count (dose: 0.5 mg/kg/injection, schedule: Q03HX024 (ip)): 8 of 8 | survivor count (dose: 1.0 mg/kg/injection, schedule: Q01DX001 (iv)): 8 of 8 | survivor count (dose: 1.0 mg/kg/injection, schedule: Q01DX009 (ip)): 8 of 8 | survivor count (dose: 1.0 mg/kg/injection, schedule: Q01DX009 (iv)): 8 of 8 | survivor count [3]: 8 of 8 | survivor count [4]: 8 of 8 | survivor count (dose: 1.0 mg/kg/injection, schedule: Q03HX008 (ip)): 8 of 8 | survivor count (dose: 1.0 mg/kg/injection, schedule: Q03HX016 (ip)): 8 of 8 | survivor count (dose: 1.0 mg/kg/injection, schedule: Q03HX024 (ip)): 8 of 8 | survivor count (dose: 1.0 mg/kg/injection, schedule: Q04DX003 (ip)): 8 of 8 | survivor count (dose: 1.0 mg/kg/injection, schedule: Q08DX002 (ip)): 8 of 8 | survivor count (dose: 2.0 mg/kg/injection, schedule: Q01DX001 (ip)): 8 of 8 | survivor count (dose: 2.0 mg/kg/injection, schedule: Q01DX001 (iv)): 8 of 8 | survivor count [5]: 8 of 8 | survivor count [6]: 8 of 8 | survivor count (dose: 2.0 mg/kg/injection, schedule: Q01DX009 (ip)): 8 of 8 | survivor count (dose: 2.0 mg/kg/injection, schedule: Q01DX009 (iv)): 8 of 8 | survivor count [7]: 8 of 8 | survivor count [8]: 8 of 8 | survivor count (dose: 2.0 mg/kg/injection, schedule: Q03HX008 (ip)): 8 of 8 | survivor count (dose: 2.0 mg/kg/injection, schedule: Q03HX016 (ip)): 8 of 8 | survivor count (dose: 2.0 mg/kg/injection, schedule: Q03HX024 (ip)): 8 of 8 | survivor count (dose: 2.0 mg/kg/injection, schedule: Q04DX003 (ip)): 8 of 8 | survivor count (dose: 2.0 mg/kg/injection, schedule: Q08DX002 (ip)): 8 of 8 | survivor count (dose: 4.0 mg/kg/injection, schedule: Q01DX001 (ip)): 8 of 8 | survivor count (dose: 4.0 mg/kg/injection, schedule: Q01DX001 (iv)): 8 of 8 | survivor count [9]: 8 of 8 | survivor count [10]: 8 of 8 | survivor count (dose: 4.0 mg/kg/injection, schedule: Q01DX009 (ip)): 8 of 8 | survivor count (dose: 4.0 mg/kg/injection, schedule: Q01DX009 (iv)): 8 of 8 | survivor count (dose: 4.0 mg/kg/injection, schedule: Q01DX009 (oral)): 8 of 8 | survivor count (dose: 4.0 mg/kg/injection, schedule: Q01DX009 (sc)): 8 of 8 | survivor count (dose: 4.0 mg/kg/injection, schedule: Q03HX008 (ip)): 8 of 8 | survivor count (dose: 4.0 mg/kg/injection, schedule: Q03HX016 (ip)): 2 of 8 | survivor count (dose: 4.0 mg/kg/injection, schedule: Q03HX024 (ip)): 4 of 8 | survivor count (dose: 4.0 mg/kg/injection, schedule: Q04DX003 (ip)): 8 of 8 | survivor count (dose: 4.0 mg/kg/injection, schedule: Q08DX002 (ip)): 8 of 8 | survivor count (dose: 4.4 mg/kg/injection, schedule: Q01DX001 (ip)): 10 of 10 | survivor count (dose: 6.6 mg/kg/injection, schedule: Q01DX001 (ip)): 10 of 10 | survivor count (dose: 8.0 mg/kg/injection, schedule: Q01DX001 (ip)): 8 of 8 | survivor count (dose: 8.0 mg/kg/injection, schedule: Q01DX001 (iv)): 8 of 8 | survivor count (dose: 8.0 mg/kg/injection, schedule: Q01DX001 (oral)): 8 of 8 | survivor count (dose: 8.0 mg/kg/injection, schedule: Q01DX001 (sc)): 8 of 8 | survivor count (dose: 8.0 mg/kg/injection, schedule: Q01DX009 (ip)): 7 of 8 | survivor count (dose: 8.0 mg/kg/injection, schedule: Q01DX009 (oral)): 8 of 8 | survivor count (dose: 8.0 mg/kg/injection, schedule: Q01DX009 (sc)): 7 of 8 | survivor count (dose: 8.0 mg/kg/injection, schedule: Q03HX008 (ip)): 7 of 8 | survivor count (dose: 8.0 mg/kg/injection, schedule: Q04DX003 (ip)): 8 of 8 | survivor count (dose: 8.0 mg/kg/injection, schedule: Q08DX002 (ip)): 8 of 8 | survivor count (dose: 10.0 mg/kg/injection, schedule: Q01DX001 (ip)): 10 of 10 | survivor count (dose: 16.0 mg/kg/injection, schedule: Q01DX001 (ip)): 5 of 8 | survivor count (dose: 16.0 mg/kg/injection, schedule: Q01DX001 (iv)): 8 of 8 | survivor count (dose: 16.0 mg/kg/injection, schedule: Q01DX001 (oral)): 5 of 8 | survivor count (dose: 16.0 mg/kg/injection, schedule: Q01DX001 (sc)): 3 of 8 | survivor count (dose: 16.0 mg/kg/injection, schedule: Q04DX003 (ip)): 6 of 8 | survivor count (dose: 16.0 mg/kg/injection, schedule: Q08DX002 (ip)): 5 of 8 | survivor count (dose: 32.0 mg/kg/injection, schedule: Q01DX001 (ip)): 4 of 8 | survivor count (dose: 32.0 mg/kg/injection, schedule: Q01DX001 (oral)): 2 of 8 | survivor count (dose: 32.0 mg/kg/injection, schedule: Q01DX001 (sc)): 5 of 8

CO[C@H](C(=O)[C@@H](O)[C@@H](C)O)[C@@H]1Cc2cc3cc(OC4CC(OC5CC(O)C(O)C(C)O5)C(O)C(C)O4)c(C)c(O)c3c(O)c2C(=O)[C@H]1OC1CC(OC2CC(OC3CC(C)(O)C(O)C(C)O3)C(O)C(C)O2)C(O)C(C)O1 (some centres not stated)
survivor count (dose: 0.01 mg/kg/injection, schedule: Q01DX009 (ip)): 8 of 8 | survivor count (dose: 0.02 mg/kg/injection, schedule: Q01DX009 (sc)): 8 of 8 | survivor count (dose: 0.03 mg/kg/injection, schedule: Q01DX001 (ip)): 8 of 8 | survivor count (dose: 0.03 mg/kg/injection, schedule: Q01DX001 (sc)): 8 of 8 | survivor count (dose: 0.03 mg/kg/injection, schedule: Q01DX005 (iv)): 8 of 8 | survivor count (dose: 0.03 mg/kg/injection, schedule: Q01DX009 (ip)): 8 of 8 | survivor count (dose: 0.03 mg/kg/injection, schedule: Q01DX009 (sc)): 8 of 8 | survivor count (dose: 0.06 mg/kg/injection, schedule: Q01DX001 (ip)): 8 of 8 | survivor count (dose: 0.06 mg/kg/injection, schedule: Q01DX001 (sc)): 8 of 8 | survivor count (dose: 0.06 mg/kg/injection, schedule: Q01DX005 (iv)): 8 of 8 | survivor count (dose: 0.06 mg/kg/injection, schedule: Q01DX009 (ip)): 8 of 8 | survivor count (dose: 0.06 mg/kg/injection, schedule: Q01DX009 (sc)): 8 of 8 | survivor count (dose: 0.13 mg/kg/injection, schedule: Q01DX001 (ip)): 8 of 8 | survivor count (dose: 0.13 mg/kg/injection, schedule: Q01DX001 (sc)): 8 of 8 | survivor count (dose: 0.13 mg/kg/injection, schedule: Q01DX005 (iv)): 8 of 8 | survivor count (dose: 0.13 mg/kg/injection, schedule: Q01DX009 (ip)): 8 of 8 | survivor count (dose: 0.13 mg/kg/injection, schedule: Q01DX009 (sc)): 8 of 8 | survivor count (dose: 0.25 mg/kg/injection, schedule: Q01DX001 (ip)): 8 of 8 | survivor count (dose: 0.25 mg/kg/injection, schedule: Q01DX001 (sc)): 8 of 8 | survivor count (dose: 0.25 mg/kg/injection, schedule: Q01DX005 (iv)): 8 of 8 | survivor count (dose: 0.25 mg/kg/injection, schedule: Q01DX009 (ip)): 8 of 8 | survivor count (dose: 0.25 mg/kg/injection, schedule: Q01DX009 (oral)): 8 of 8 | survivor count (dose: 0.25 mg/kg/injection, schedule: Q01DX009 (sc)): 7 of 8 and 8 of 8 | survivor count (dose: 0.5 mg/kg/injection, schedule: Q01DX001 (ip)): 8 of 8 | survivor count (dose: 0.5 mg/kg/injection, schedule: Q01DX001 (oral)): 8 of 8 | survivor count (dose: 0.5 mg/kg/injection, schedule: Q01DX001 (sc)): 2 of 8 and 8 of 8 | survivor count (dose: 0.5 mg/kg/injection, schedule: Q01DX005 (iv)): 7 of 8 | survivor count [1]: 8 of 8 | survivor count [2]: 1 of 8 and 8 of 8 | survivor count (dose: 1.0 mg/kg/injection, schedule: Q01DX001 (oral)): 8 of 8 | survivor count (dose: 1.0 mg/kg/injection, schedule: Q01DX001 (sc)): 0 of 8 and 8 of 8 | survivor count [3]: 8 of 8 | survivor count [4]: 0 of 6 | survivor count [5]: 8 of 8 | survivor count [6]: 0 of 8 | survivor count [7]: 6 of 8 | survivor count [8]: 1 of 8 | survivor count [9]: 8 of 8 | survivor count [10]: 0 of 8
